# This is one part of the list. Repeats are few or missing, and single values can be far off.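 Cells were imaged in 1,536-well plates, and nuclei stained with an antibody against cleaved PARP were counted against all DNA-stained nuclei to give the apoptosis fraction. Screening doses were chosen to leave most cells alive, and resting and induced cleaved-PARP levels differ strongly between cell lines.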
# System: A101D
# Experiment: cleaved PARP positive nuclei fraction relative to DMSO control; melanoma cells; higher = more apoptosis
# Conditions: library dose: low library concentration; 72 h
row,Compound,cleaved PARP positive nuclei fraction
1,"O=C(O)c1ccc(-c2c[nH]c3ncc(-c4ccccc4)cc23)cc1C1CCCC1 + O=C(Oc1ccc([N+](=O)[O-])cc1)N1CCC(C(O)(c2ccc3c(c2)OCO3)c2ccc3c(c2)OCO3)CC1 [JZL184] (first compound 0.16 µM, partner dose 1 µM)",106%
2,"Cn1nnc2c(C(N)=O)ncn2c1=O [temozolomide] + O=C(Oc1ccc([N+](=O)[O-])cc1)N1CCC(C(O)(c2ccc3c(c2)OCO3)c2ccc3c(c2)OCO3)CC1 [JZL184] (first compound 2 µM, partner dose 1 µM)",41.4%
3,"Cc1cc(SCc2sc(-c3ccc(C(F)(F)F)c(F)c3)nc2C)ccc1OCC(=O)O + COc1cc(N2CCC(N3CCN(C)CC3)CC2)ccc1Nc1ncc(Cl)c(Nc2ccccc2S(=O)(=O)C(C)C)n1 [NVP-TAE684] (first compound 2 µM, partner dose 0.08 µM)",62%
4,"CCN(CC)CCCCNc1ncc2cc(-c3cc(OC)cc(OC)c3)c(NC(=O)NC(C)(C)C)nc2n1 + C/C(O)=C(\C#N)C(=O)Nc1cc(Br)ccc1Br [LFM-A13] (first compound 0.1 µM, partner dose 2 µM)",161%
5,"CN(NC(=O)CC(=O)NN(C)C(=S)c1ccccc1)C(=S)c1ccccc1 + C/C(O)=C(\C#N)C(=O)Nc1cc(Br)ccc1Br [LFM-A13] (first compound 0.006 µM, partner dose 2 µM)",55.1%
6,"CCN(CC)CCCCNc1ncc2cc(-c3cc(OC)cc(OC)c3)c(NC(=O)NC(C)(C)C)nc2n1 + Cc1cc(SCc2sc(-c3ccc(C(F)(F)F)c(F)c3)nc2C)ccc1OCC(=O)O [GW0742] (first compound 0.1 µM, partner dose 2 µM)",55.1%
7,"Cc1cc(SCc2sc(-c3ccc(C(F)(F)F)c(F)c3)nc2C)ccc1OCC(=O)O + Cn1cc(/C=C2\C(=O)Nc3cccnc32)c2ccccc21 [GW441756] (first compound 2 µM, partner dose 0.4 µM)",56.2%
8,"CCN(CC)CCCCNc1ncc2cc(-c3cc(OC)cc(OC)c3)c(NC(=O)NC(C)(C)C)nc2n1 + O=C(Oc1ccc([N+](=O)[O-])cc1)N1CCC(C(O)(c2ccc3c(c2)OCO3)c2ccc3c(c2)OCO3)CC1 [JZL184] (first compound 0.1 µM, partner dose 1 µM)",37.3%
9,"O=C(Nc1ccccc1)c1cc([N+](=O)[O-])ccc1Cl + O=C(Oc1ccc([N+](=O)[O-])cc1)N1CCC(C(O)(c2ccc3c(c2)OCO3)c2ccc3c(c2)OCO3)CC1 [JZL184] (first compound 2 µM, partner dose 1 µM)",36.1%
10,"Oc1nc(-c2ccc(C(F)(F)F)cc2)nc2c1CSCC2 + O=C(Oc1ccc([N+](=O)[O-])cc1)N1CCC(C(O)(c2ccc3c(c2)OCO3)c2ccc3c(c2)OCO3)CC1 [JZL184] (first compound 2 µM, partner dose 1 µM)",166%
11,"C[As](C)SC[C@H](NC(=O)CC[C@H](N)C(=O)O)C(=O)NCC(=O)O [Darinaparsin] + O=c1cc(-c2cccc3c2Sc2ccccc2S3)oc(N2CCOCC2)c1 [KU55933] (first compound 0.4 µM, partner dose 1 µM)",41.5%
12,"C[As](C)SC[C@H](NC(=O)CC[C@H](N)C(=O)O)C(=O)NCC(=O)O [Darinaparsin] + O=C(O)C(=O)Nc1sc2c(c1C(=O)O)CCNC2 [TCS401] (first compound 0.4 µM, partner dose 1.66667 µM)",230%

# Given with bars between the fields: part of the list above
row | Compound | cleaved PARP positive nuclei fraction
7 | Cc1cc(SCc2sc(-c3ccc(C(F)(F)F)c(F)c3)nc2C)ccc1OCC(=O)O + Cn1cc(/C=C2\C(=O)Nc3cccnc32)c2ccccc21 [GW441756] (first compound 2 µM, partner dose 0.4 µM) | 56.2%
12 | C[As](C)SC[C@H](NC(=O)CC[C@H](N)C(=O)O)C(=O)NCC(=O)O [Darinaparsin] + O=C(O)C(=O)Nc1sc2c(c1C(=O)O)CCNC2 [TCS401] (first compound 0.4 µM, partner dose 1.66667 µM) | 230%

# From the supplement of paper PMC4604168 (melanoma cell lines)
